No constants are given. Whether binding was seen depends on the method and setting. For some assays here: Binding seen in cells or lysates may run through a third protein. Some binding calls cover weakened binding; strength is not graded here. For some assays here: Sequences can lack the tags named with a protein.

By UniProt entry, the sequences of proteins in these tests, tags left out.
UniProt O18332: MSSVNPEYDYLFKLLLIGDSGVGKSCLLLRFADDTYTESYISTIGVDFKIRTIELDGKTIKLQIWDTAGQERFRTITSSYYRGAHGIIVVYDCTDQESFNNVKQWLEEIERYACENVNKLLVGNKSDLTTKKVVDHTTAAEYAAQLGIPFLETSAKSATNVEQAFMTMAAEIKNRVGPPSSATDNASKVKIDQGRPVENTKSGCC

This note sets out measurements from article PMC5303273.

The target of assay [1] is T1, GST-Rab11 (Drosophila melanogaster) (UniProt O18335).
T1 sequence: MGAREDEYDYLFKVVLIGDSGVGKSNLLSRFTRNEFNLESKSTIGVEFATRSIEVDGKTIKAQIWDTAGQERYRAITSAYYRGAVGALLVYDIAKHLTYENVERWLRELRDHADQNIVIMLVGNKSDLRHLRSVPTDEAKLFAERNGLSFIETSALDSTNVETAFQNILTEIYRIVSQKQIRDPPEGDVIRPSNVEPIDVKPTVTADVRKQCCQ
Description: pull-down; GST, GST-Rab1 or GST-Rab11 on Glutathione-Sepharose 4B beads incubated with larval brain lysates from animals expressing GFP-Cog7; 25 mM Tris-HCl pH 7.4, 150 mM NaCl, 0.5% NP-40, 1 mM EDTA; 4°C for 2 h; blot with anti-GFP; only the target purified.

For assay [2], the target named is Rab1 bait (yeast two-hybrid) (Drosophila melanogaster) (UniProt O18332). Description: two-hybrid; B42/lexA system, strain EGY48, bait in pEG202, prey in pJG4-5; X-GAL plates with raffinose or galactose; beta-galactosidase assay with ONPG.

B1: GFP-Cog7 (protein, UniProt Q9VAD6 1-742)
chain: MDVSALSETTFSPAEWINANYKKFVEENGRDDSEAASAFIRSYVAKLQLYIFNVNNAVEESSRQVVASMPRIAKESAALQADVHRLQEKMSAMRLEVAAVQSETGECMATLERLNTKSQKLQVAKESLQESDGWGNLLAELEDGFERNDLKGVCDKLIALQKSLHAQEQLPGHAERQTQVEDFKNRLEALASPSVVQCFAEGNTEQAQHFVQIFTSIQRLPQLQQYYRAVQKNFWQQQWKQTLELQGTESQPQQQQFLTLYYDQLLEHCQRQVKWCSNLFGENSPQPFLVIAELLPALQPTRDAHILQLLKTSNERLEMLALFAKVNHSFVLHLNSLLEQSHITLSEELHRLLGEAIFEYFHKFIQQYPRLEETQLSTQVDRLSSNQATPSDGVRHLEESTRKLYEWLKEACERCASITSDLALCKLITLLNGIFKRQLESFGRIQRQIGLSLGSSSYAAQSENWSLLQYTMSQLQCLADFQVQLHQFEQDLHTRMVMLSNRLTKPSNRGPITIFQTCDHAARTQLLNSIADYQQKKSEATDSLGIFPQIYATLKSHFADTHDITLNILLQPIETHLAHIRPPVQDHAASGIEMPSFSFAPQESITQIGQYLLTLPQHLEPLLLSPSSLLKQALEVCNIKYTQAIPCADVLLSLVVEQCCVLYVTQILQIKSLPSSAATQLSVDIEYLSNVLEELGLSINLQLSQILTLLKAAPDQYLTLSSGCEPRLVTAIRQMRNIISTQ
B1: in assay [1], the binding entry is recorded as “binds”.

B2: Cog7 prey (yeast two-hybrid) (protein, UniProt Q9VAD6 1-742)
chain: MDVSALSETTFSPAEWINANYKKFVEENGRDDSEAASAFIRSYVAKLQLYIFNVNNAVEESSRQVVASMPRIAKESAALQADVHRLQEKMSAMRLEVAAVQSETGECMATLERLNTKSQKLQVAKESLQESDGWGNLLAELEDGFERNDLKGVCDKLIALQKSLHAQEQLPGHAERQTQVEDFKNRLEALASPSVVQCFAEGNTEQAQHFVQIFTSIQRLPQLQQYYRAVQKNFWQQQWKQTLELQGTESQPQQQQFLTLYYDQLLEHCQRQVKWCSNLFGENSPQPFLVIAELLPALQPTRDAHILQLLKTSNERLEMLALFAKVNHSFVLHLNSLLEQSHITLSEELHRLLGEAIFEYFHKFIQQYPRLEETQLSTQVDRLSSNQATPSDGVRHLEESTRKLYEWLKEACERCASITSDLALCKLITLLNGIFKRQLESFGRIQRQIGLSLGSSSYAAQSENWSLLQYTMSQLQCLADFQVQLHQFEQDLHTRMVMLSNRLTKPSNRGPITIFQTCDHAARTQLLNSIADYQQKKSEATDSLGIFPQIYATLKSHFADTHDITLNILLQPIETHLAHIRPPVQDHAASGIEMPSFSFAPQESITQIGQYLLTLPQHLEPLLLSPSSLLKQALEVCNIKYTQAIPCADVLLSLVVEQCCVLYVTQILQIKSLPSSAATQLSVDIEYLSNVLEELGLSINLQLSQILTLLKAAPDQYLTLSSGCEPRLVTAIRQMRNIISTQ
For the molecule B2, the binding entry in assay [2] was “no binding”.
